From patent US6391917B1, “Dialkyl ureas as calcitonin mimetics” (ZymoGenetics, Inc., priority 1998, dated 2002)
At least one structure is not confirmed: it was looked up by name or label, or the drawing left a doubt.

Target: T1, human PTH receptor (Homo sapiens, UniProt Q03431)
T1 construct: expressed in transfected cells; host or cells: BHK570 clone KZ10-20-48 (KZ10-20-48/PTH-20)
T1 sequence (Q03431 27-593): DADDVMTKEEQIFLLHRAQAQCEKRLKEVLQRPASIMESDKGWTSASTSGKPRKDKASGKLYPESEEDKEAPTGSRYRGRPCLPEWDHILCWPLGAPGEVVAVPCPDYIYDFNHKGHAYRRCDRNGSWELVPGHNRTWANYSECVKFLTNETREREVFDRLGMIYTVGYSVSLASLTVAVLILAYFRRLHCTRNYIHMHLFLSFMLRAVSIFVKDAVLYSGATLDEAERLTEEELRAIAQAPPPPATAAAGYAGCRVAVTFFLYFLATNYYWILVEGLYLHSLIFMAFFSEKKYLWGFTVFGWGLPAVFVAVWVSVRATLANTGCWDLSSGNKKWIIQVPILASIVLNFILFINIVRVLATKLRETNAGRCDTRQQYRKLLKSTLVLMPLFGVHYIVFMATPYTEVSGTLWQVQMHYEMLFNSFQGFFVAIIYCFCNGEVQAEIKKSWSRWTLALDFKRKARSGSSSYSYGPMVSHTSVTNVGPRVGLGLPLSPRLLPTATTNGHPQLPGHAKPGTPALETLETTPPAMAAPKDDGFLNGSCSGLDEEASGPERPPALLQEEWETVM
Assay: CRE-luciferase induction in clone KZ10-20-48/PTH-20
Assay type: cell-based
From the text: Test substances that appear to specifically elevate luciferase expression in CT-R positive cells but not CT-R negative cells were subjected to an additional specificity check, i.e. their inability to activate other members of the G-protein coupled receptor family. The parathyroid hormone (PTH) receptor is another member of the G-protein coupled receptor family that transduces signal through adenylate cyclase mediated elevation of cAMP.

C=C[C@@]1(C)CC(=O)[C@]2(O)[C@@]3(C)[C@@H](O)CCC(C)(C)[C@@H]3[C@H](O)[C@H](OC(C)=O)[C@@]2(C)O1 [forskolin]
induction of luciferase: 25 fold
